Experimental findings from paper PMC11637483, “Dissecting caspase-2-mediated cell death: from intrinsic PIDDosome activation to chemical modulation” (Protein & Cell, 2024) are described below.

Amino acid sequences for entries named in this document (tags omitted). A change or cut given only in a name is not applied to a line headed by its entry.
UniProt Q9HB75: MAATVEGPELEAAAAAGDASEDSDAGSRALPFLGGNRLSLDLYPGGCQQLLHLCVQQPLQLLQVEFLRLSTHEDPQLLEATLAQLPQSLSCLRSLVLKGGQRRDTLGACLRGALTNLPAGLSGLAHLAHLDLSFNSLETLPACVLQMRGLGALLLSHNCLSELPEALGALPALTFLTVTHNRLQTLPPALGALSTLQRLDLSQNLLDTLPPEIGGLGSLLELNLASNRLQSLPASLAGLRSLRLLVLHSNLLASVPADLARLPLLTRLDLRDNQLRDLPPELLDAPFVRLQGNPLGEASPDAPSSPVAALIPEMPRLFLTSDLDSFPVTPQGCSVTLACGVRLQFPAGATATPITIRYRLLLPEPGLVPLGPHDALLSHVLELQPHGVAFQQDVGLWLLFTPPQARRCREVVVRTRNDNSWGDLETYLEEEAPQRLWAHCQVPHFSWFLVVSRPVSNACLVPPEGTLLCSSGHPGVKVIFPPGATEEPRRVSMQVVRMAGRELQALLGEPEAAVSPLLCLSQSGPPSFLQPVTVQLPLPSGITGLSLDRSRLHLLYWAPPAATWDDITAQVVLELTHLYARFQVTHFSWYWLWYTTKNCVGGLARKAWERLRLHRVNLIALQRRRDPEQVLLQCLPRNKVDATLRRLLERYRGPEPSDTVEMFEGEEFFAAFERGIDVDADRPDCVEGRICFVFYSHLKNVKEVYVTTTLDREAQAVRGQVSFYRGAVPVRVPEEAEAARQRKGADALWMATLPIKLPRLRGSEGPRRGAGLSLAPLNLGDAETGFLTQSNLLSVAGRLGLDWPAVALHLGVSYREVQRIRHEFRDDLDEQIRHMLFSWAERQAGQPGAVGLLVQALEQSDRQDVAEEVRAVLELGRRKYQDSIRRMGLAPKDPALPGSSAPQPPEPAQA
UniProt P78560: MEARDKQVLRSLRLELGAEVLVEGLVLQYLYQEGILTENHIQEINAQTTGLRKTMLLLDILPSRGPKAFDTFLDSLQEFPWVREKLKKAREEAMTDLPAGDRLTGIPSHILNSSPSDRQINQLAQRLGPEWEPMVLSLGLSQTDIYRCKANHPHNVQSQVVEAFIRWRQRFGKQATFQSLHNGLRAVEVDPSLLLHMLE

The test concerns the target death domain of PIDD1 (PIDD1-DD) (human) (UniProt Q9HB75). The experiment in a line: SEC; complex of the three proteins co-expressed in E. coli and purified, loaded on a Superdex 200 10/300 GL column, eluted with 20 mmol/L Tris-HCl pH 8.0, 150 mmol/L NaCl, 1 mmol/L TCEP; fractions analysed by SDS-PAGE; both purified. In general terms: SEC sorts molecules by how far they enter the pores of the column.

No constants are given. Whether binding was seen depends on the method and setting. Binding can be weak; no strength is given.

Turning to RAIDD (from UniProt P78560 1-199), the binding result is “binds”.
